US20050256134A1, “Use of creatine analogues and creatine kinase modulators for the prevention and treatment of glucose metabolic disorders” (AVICENA GROUP, INC., priority 1995, published 2005)
The source gives many values for each of these; only a part stands here.

System: terminal cancer patients
Test: Phase I/II open label dose escalation study, glucose levels, 3 hour continuous infusion
Assay type: in vivo, human
Method: Cyclocreatine was tested in humans in a phase I/II open label dose escalation study. […] Cyclocreatine was administered at doses that ranged from 10 mg/Kg to 100 mg/Kg. The schedule of administration of cyclocreatine is described in Table 4.
Cohorts of 3 patients were administered drug at each dose level, via a 3 hour continuous infusion in one liter volume of saline. The first week patients received cyclocreatine once, the second week patients received cyclocreatine twice, the third week three times, the fourth week four times, the fifth week five times. On weeks six and seven, no drug was administered to allow the drug to wash out. On week eight, cyclocreatine was given five times. The study included a total of 23 patients (18 male, 5 female) with a median age of 71 years (range 54-85). The patients had different types of malignancies. Eligibility requirements included patients who have failed standard therapy or for whom no therapy was available, normal organ function, have recovered from prior therapies, probability of survival of greater than three months. Reasons for exclusion included: major surgery, life threatening concurrent illness and CNS metastasis. Blood samples were collected at baseline and 1 day before and after the last weekly drug administration on days 1, 7, 9, 14, 17, 21, 25, 28, 33, 40, 47, 49, 54, 61, and 69. Glucose levels were determined for these collected blood samples. […] Not all patients experienced a significant drop in glucose although the trend was there. FIGS. 14 and 15 illustrate graphically individual patients' glucose levels upon treatment with 60 mg/Kg or 80 mg/Kg cyclocreatine. Patient (A) at the 80 mg/Kg dose was diabetic and had many serious complications due to their disease. […] It should be noted that an insufficient number of readings was made shortly after drug administration. It is interesting to note that several patients who were diabetic or had higher glucose levels than normal did respond to cyclocreatine, onen example being illustrated in FIG. 16.

NC1=NCCN1CC(=O)O [cyclocreatine]
Glucose (Patient 4, 20 mg/Kg, Study Day 9): 79 mg/dL
Glucose (Patient 4, 20 mg/Kg, Study Day 14): 93 mg/dL
Glucose (Patient 4, 20 mg/Kg, Study Day 17): 60 mg/dL
Glucose (Patient 4, 20 mg/Kg, Study Day 21): 73 mg/dL
Glucose (Patient 4, 20 mg/Kg, Study Day 25): 98 mg/dL
Glucose (Patient 4, 20 mg/Kg, Study Day 28): 88 mg/dL
Glucose (Patient 4, 20 mg/Kg, Study Day 33): 70 mg/dL
Glucose (Patient 4, 20 mg/Kg, Study Day 40): 74 mg/dL
Glucose (Patient 4, 20 mg/Kg, Study Day 49): 88 mg/dL
Glucose (Patient 4, 20 mg/Kg, Study Day 54): 89 mg/dL
Glucose (Patient 4, 20 mg/Kg, Study Day 61): 74 mg/dL
Glucose (Patient 4, 20 mg/Kg, Study Day 69): 83 mg/dL
Glucose (Patient 5, 20 mg/Kg, Study Day 0): 117 mg/dL
Glucose (Patient 5, 20 mg/Kg, Study Day 1): 91 mg/dL
Glucose (Patient 5, 20 mg/Kg, Study Day 7): 114 mg/dL
Glucose (Patient 5, 20 mg/Kg, Study Day 9): 84 mg/dL
Glucose (Patient 5, 20 mg/Kg, Study Day 17): 89 mg/dL
Glucose (Patient 5, 20 mg/Kg, Study Day 21): 136 mg/dL
Glucose (Patient 5, 20 mg/Kg, Study Day 25): 100 mg/dL
Glucose (Patient 5, 20 mg/Kg, Study Day 28): 180 mg/dL
Glucose (Patient 5, 20 mg/Kg, Study Day 33): 89 mg/dL
Glucose (Patient 5, 20 mg/Kg, Study Day 40): 121 mg/dL
Glucose (Patient 5, 20 mg/Kg, Study Day 49): 90 mg/dL
Glucose (Patient 5, 20 mg/Kg, Study Day 54): 60 mg/dL
Glucose (Patient 5, 20 mg/Kg, Study Day 61): 102 mg/dL
Glucose (Patient 5, 20 mg/Kg, Study Day 69): 114 mg/dL
Glucose (Patient 6, 20 mg/Kg, Study Day 0): 85 mg/dL
Glucose (Patient 6, 20 mg/Kg, Study Day 1): 83 mg/dL
Glucose (Patient 6, 20 mg/Kg, Study Day 7): 141 mg/dL
Glucose (Patient 7, 20 mg/Kg, Study Day 0): 240 mg/dL
Glucose (Patient 7, 20 mg/Kg, Study Day 1): 201 mg/dL
Glucose (Patient 7, 20 mg/Kg, Study Day 7): 120 mg/dL
Glucose (Patient 7, 20 mg/Kg, Study Day 9): 161 mg/dL
Glucose (Patient 7, 20 mg/Kg, Study Day 14): 207 mg/dL
Glucose (Patient 7, 20 mg/Kg, Study Day 17): 135 mg/dL
Glucose (Patient 7, 20 mg/Kg, Study Day 21): 154 mg/dL
Glucose (Patient 7, 20 mg/Kg, Study Day 28): 172 mg/dL
Glucose (Patient 7, 20 mg/Kg, Study Day 33): 174 mg/dL
Glucose (Patient 7, 20 mg/Kg, Study Day 40): 159 mg/dL
Glucose (Patient 7, 20 mg/Kg, Study Day 47): 202 mg/dL
Glucose (Patient 7, 20 mg/Kg, Study Day 49): 201 mg/dL
Glucose (Patient 7, 20 mg/Kg, Study Day 54): 120 mg/dL
Glucose (Patient 7, 20 mg/Kg, Study Day 61): 128 mg/dL
Glucose (Patient 7, 20 mg/Kg, Study Day 69): 156 mg/dL
Glucose (Patient 11, 60 mg/Kg, Study Day 0): 118 mg/dL
Glucose (Patient 11, 60 mg/Kg, Study Day 1): 76 mg/dL
Glucose (Patient 11, 60 mg/Kg, Study Day 9): 89 mg/dL
Glucose (Patient 11, 60 mg/Kg, Study Day 14): 108 mg/dL
Glucose (Patient 11, 60 mg/Kg, Study Day 17): 92 mg/dL
Glucose (Patient 11, 60 mg/Kg, Study Day 21): 90 mg/dL
Glucose (Patient 11, 60 mg/Kg, Study Day 25): 90 mg/dL
Glucose (Patient 12, 60 mg/Kg, Study Day 0): 83 mg/dL
Glucose (Patient 12, 60 mg/Kg, Study Day 1): 89 mg/dL
Glucose (Patient 12, 60 mg/Kg, Study Day 9): 92 mg/dL
Glucose (Patient 12, 60 mg/Kg, Study Day 14): 105 mg/dL
Glucose (Patient 12, 60 mg/Kg, Study Day 17): 73 mg/dL
Glucose (Patient 12, 60 mg/Kg, Study Day 21): 138 mg/dL
Glucose (Patient 12, 60 mg/Kg, Study Day 25): 68 mg/dL
Glucose (Patient 12, 60 mg/Kg, Study Day 28): 74 mg/dL
Glucose (Patient 12, 60 mg/Kg, Study Day 33): 113 mg/dL
Glucose (Patient 12, 60 mg/Kg, Study Day 40): 83 mg/dL
Glucose (Patient 12, 60 mg/Kg, Study Day 47): 95 mg/dL
Glucose (Patient 12, 60 mg/Kg, Study Day 49): 98 mg/dL
Glucose (Patient 12, 60 mg/Kg, Study Day 61): 106 mg/dL
Glucose (Patient 12, 60 mg/Kg, Study Day 69): 112 mg/dL
Glucose (Patient 13, 60 mg/Kg, Study Day 0): 147 mg/dL
Glucose (Patient 13, 60 mg/Kg, Study Day 1): 100 mg/dL
Glucose (Patient 13, 60 mg/Kg, Study Day 14): 93 mg/dL
Glucose (Patient 13, 60 mg/Kg, Study Day 17): 92 mg/dL
Glucose (Patient 13, 60 mg/Kg, Study Day 21): 82 mg/dL
Glucose (Patient 13, 60 mg/Kg, Study Day 25): 75 mg/dL
Glucose (Patient 13, 60 mg/Kg, Study Day 28): 56 mg/dL
Glucose (Patient 13, 60 mg/Kg, Study Day 33): 85 mg/dL
Glucose (Patient 13, 60 mg/Kg, Study Day 40): 67 mg/dL
Glucose (Patient 13, 60 mg/Kg, Study Day 47): 142 mg/dL
Glucose (Patient 13, 60 mg/Kg, Study Day 49): 106 mg/dL
Glucose (Patient 13, 60 mg/Kg, Study Day 54): 72 mg/dL
Glucose (Patient 13, 60 mg/Kg, Study Day 61): 64 mg/dL
Glucose (Patient 13, 60 mg/Kg, Study Day 69): 141 mg/dL
Glucose (Patient 14, 80 mg/Kg, Study Day 0): 172 mg/dL
Glucose (Patient 14, 80 mg/Kg, Study Day 1): 33 mg/dL
Glucose (Patient 14, 80 mg/Kg, Study Day 7): 243 mg/dL
Glucose (Patient 14, 80 mg/Kg, Study Day 9): 378 mg/dL
Glucose (Patient 14, 80 mg/Kg, Study Day 14): 198 mg/dL
Glucose (Patient 14, 80 mg/Kg, Study Day 17): 291 mg/dL
Glucose (Patient 14, 80 mg/Kg, Study Day 21): 271 mg/dL
Glucose (Patient 14, 80 mg/Kg, Study Day 25): 352 mg/dL
Glucose (Patient 14, 80 mg/Kg, Study Day 28): 364 mg/dL
Glucose (Patient 14, 80 mg/Kg, Study Day 33): 345 mg/dL
Glucose (Patient 14, 80 mg/Kg, Study Day 40): 175 mg/dL
Glucose (Patient 14, 80 mg/Kg, Study Day 49): 280 mg/dL
Glucose (Patient 14, 80 mg/Kg, Study Day 54): 416 mg/dL
Glucose (Patient 15, 80 mg/Kg, Study Day 0): 100 mg/dL
Glucose (Patient 15, 80 mg/Kg, Study Day 1): 85 mg/dL
Glucose (Patient 15, 80 mg/Kg, Study Day 7): 93 mg/dL
Glucose (Patient 15, 80 mg/Kg, Study Day 9): 65 mg/dL
Glucose (Patient 15, 80 mg/Kg, Study Day 14): 88 mg/dL
